Test results: the supplement of paper PMC10849652
The other results are listed elsewhere or left out.

Sequences of proteins named here, by UniProt entry; tags and fusion partners are left off. A change or cut given only in a name is not applied to a line headed by its entry.
UniProt Q9HD20: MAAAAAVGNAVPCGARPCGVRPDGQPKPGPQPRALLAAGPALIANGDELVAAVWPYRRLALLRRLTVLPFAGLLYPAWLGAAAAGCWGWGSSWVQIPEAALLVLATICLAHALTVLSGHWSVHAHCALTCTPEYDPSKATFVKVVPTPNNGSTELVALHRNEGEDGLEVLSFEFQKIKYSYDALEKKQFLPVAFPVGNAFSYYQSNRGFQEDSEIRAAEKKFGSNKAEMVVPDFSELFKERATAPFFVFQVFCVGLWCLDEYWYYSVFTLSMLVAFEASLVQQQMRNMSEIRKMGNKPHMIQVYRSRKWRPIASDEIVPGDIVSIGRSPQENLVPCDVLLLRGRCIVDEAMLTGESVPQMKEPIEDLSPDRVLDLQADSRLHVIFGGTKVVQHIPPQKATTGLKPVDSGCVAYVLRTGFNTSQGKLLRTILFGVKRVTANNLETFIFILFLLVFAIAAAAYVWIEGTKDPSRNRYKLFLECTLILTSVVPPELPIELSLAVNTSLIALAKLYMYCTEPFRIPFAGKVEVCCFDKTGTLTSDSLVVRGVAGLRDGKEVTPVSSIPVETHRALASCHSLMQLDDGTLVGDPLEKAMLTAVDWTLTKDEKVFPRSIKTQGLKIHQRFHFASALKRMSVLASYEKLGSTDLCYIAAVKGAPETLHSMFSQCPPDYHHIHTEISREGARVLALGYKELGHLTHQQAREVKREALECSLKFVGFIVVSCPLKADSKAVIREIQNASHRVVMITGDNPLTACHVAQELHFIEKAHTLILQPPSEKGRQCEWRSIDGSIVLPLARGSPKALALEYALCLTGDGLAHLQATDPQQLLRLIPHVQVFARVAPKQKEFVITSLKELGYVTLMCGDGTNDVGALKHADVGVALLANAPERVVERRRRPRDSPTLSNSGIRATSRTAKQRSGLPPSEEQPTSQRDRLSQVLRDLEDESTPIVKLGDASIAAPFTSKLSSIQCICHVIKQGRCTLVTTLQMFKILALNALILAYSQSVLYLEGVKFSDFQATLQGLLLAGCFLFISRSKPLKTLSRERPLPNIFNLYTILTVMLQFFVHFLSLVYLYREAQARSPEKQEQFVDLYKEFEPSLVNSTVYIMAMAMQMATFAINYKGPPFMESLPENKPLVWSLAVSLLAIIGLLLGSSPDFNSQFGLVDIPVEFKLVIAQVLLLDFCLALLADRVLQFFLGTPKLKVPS
UniProt P30049: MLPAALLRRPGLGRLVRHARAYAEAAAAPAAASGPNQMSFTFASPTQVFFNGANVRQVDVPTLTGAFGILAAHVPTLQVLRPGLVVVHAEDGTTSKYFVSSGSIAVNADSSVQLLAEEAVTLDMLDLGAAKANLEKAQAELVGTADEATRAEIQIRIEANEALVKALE
UniProt Q9Y6H3: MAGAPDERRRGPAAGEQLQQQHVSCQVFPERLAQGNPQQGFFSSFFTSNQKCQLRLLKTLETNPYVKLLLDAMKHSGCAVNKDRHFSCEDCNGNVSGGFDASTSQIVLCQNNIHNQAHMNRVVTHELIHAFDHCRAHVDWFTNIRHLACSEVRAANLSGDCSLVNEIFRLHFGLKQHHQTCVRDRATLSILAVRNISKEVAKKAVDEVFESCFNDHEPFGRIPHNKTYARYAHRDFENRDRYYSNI
UniProt P54252: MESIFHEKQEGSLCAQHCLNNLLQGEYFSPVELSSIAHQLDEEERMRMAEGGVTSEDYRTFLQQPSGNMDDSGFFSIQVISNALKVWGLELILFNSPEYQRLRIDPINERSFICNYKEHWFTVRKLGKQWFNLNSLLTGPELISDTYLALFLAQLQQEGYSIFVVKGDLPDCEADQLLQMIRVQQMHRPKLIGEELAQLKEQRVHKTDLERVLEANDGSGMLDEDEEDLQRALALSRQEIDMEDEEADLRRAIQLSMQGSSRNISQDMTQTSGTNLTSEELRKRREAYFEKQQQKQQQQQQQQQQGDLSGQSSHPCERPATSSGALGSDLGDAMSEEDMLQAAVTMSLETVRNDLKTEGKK
UniProt Q9UBL3, whole entry, looked up: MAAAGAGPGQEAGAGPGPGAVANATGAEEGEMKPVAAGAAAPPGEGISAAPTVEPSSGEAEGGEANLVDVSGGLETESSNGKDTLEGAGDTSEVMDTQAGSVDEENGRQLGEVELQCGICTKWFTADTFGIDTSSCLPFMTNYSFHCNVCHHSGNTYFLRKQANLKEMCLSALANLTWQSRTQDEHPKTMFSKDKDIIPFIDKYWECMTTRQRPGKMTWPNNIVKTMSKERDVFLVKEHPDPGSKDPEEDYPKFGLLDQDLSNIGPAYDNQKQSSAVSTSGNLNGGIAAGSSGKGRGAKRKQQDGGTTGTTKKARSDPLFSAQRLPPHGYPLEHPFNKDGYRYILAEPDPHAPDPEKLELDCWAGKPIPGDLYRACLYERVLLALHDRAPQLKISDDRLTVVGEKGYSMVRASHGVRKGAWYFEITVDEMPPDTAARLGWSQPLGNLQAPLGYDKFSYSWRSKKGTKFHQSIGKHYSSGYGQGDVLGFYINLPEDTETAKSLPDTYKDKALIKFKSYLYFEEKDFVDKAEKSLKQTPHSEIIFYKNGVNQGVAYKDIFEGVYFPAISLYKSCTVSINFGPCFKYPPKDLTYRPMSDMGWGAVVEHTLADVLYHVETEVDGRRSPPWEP
UniProt Q96A05, whole entry, looked up: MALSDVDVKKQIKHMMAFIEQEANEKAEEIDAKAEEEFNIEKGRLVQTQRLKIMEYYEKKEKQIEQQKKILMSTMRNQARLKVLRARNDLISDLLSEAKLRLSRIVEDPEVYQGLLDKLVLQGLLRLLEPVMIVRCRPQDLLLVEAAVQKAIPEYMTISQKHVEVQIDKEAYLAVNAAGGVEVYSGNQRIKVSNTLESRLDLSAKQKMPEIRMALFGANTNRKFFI
UniProt P61769, whole entry, looked up: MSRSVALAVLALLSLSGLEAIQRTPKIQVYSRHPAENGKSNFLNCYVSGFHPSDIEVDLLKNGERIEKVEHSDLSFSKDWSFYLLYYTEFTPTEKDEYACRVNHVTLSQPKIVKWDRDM
UniProt Q9NQ11: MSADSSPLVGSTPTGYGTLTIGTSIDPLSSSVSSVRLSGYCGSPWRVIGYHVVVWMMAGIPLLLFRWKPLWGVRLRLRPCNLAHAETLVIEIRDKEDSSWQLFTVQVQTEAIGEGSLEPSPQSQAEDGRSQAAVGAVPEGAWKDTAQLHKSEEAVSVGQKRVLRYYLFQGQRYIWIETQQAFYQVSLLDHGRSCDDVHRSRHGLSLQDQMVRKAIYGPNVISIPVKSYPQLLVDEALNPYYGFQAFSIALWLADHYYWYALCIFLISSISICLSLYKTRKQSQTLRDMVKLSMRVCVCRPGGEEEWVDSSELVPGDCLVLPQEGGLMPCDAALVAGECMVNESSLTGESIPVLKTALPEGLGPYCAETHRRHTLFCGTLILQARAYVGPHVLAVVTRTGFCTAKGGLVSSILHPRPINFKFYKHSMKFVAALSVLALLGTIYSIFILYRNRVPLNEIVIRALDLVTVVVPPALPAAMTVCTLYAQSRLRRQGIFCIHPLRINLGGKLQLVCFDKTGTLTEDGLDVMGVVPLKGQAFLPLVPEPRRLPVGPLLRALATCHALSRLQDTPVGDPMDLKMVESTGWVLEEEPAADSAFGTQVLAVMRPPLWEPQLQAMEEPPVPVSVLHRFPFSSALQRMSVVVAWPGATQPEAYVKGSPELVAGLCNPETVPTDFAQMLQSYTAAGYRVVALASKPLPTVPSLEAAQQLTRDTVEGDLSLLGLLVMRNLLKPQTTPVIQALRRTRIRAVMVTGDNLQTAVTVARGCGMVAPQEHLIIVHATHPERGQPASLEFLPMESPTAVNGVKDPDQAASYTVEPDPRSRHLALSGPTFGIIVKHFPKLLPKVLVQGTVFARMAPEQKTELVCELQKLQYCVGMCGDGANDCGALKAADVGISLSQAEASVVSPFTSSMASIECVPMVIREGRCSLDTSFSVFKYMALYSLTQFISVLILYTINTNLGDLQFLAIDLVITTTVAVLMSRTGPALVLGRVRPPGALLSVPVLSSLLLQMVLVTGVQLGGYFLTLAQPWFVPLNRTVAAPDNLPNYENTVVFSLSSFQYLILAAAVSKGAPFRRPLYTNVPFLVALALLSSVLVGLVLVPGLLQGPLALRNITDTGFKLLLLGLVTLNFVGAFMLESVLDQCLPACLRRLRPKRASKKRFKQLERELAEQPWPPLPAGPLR
UniProt Q8WXE1: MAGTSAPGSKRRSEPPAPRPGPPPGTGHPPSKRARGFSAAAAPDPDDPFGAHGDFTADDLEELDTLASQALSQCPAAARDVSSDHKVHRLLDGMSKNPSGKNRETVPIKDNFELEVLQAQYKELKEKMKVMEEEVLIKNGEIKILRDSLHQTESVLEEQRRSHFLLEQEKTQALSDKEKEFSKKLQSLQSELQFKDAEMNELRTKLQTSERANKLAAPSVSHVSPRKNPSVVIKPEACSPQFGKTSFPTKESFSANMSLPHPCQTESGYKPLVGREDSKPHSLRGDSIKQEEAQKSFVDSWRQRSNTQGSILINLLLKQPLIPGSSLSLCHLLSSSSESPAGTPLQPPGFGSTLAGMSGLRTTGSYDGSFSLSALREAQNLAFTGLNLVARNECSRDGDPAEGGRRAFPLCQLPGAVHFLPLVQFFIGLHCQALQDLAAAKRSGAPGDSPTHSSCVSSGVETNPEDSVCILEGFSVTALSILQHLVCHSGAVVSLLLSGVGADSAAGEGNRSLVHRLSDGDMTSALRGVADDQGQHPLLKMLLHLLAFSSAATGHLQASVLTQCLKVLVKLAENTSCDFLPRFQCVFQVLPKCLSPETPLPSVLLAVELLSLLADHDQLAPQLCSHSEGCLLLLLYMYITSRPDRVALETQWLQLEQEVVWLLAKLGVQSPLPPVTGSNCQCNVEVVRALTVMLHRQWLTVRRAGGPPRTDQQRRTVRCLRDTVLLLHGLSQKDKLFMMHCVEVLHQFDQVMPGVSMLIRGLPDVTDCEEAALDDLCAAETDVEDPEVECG
UniProt Q16864, whole entry, looked up: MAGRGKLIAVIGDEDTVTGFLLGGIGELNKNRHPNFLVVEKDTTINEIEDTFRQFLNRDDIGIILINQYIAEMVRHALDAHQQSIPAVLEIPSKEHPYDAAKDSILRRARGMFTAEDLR
UniProt P04424, whole entry, looked up: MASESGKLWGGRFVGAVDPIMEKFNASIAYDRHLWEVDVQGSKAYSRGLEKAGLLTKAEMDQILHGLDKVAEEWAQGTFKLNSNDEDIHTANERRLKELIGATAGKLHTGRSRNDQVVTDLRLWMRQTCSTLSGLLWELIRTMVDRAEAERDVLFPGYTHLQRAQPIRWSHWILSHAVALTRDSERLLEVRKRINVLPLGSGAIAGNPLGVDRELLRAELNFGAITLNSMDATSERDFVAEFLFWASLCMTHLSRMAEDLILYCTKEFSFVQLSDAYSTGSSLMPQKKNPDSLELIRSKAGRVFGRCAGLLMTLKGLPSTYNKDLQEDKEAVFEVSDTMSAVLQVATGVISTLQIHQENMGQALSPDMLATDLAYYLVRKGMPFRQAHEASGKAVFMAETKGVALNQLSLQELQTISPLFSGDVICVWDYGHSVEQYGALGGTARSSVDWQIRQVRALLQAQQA
UniProt O95260: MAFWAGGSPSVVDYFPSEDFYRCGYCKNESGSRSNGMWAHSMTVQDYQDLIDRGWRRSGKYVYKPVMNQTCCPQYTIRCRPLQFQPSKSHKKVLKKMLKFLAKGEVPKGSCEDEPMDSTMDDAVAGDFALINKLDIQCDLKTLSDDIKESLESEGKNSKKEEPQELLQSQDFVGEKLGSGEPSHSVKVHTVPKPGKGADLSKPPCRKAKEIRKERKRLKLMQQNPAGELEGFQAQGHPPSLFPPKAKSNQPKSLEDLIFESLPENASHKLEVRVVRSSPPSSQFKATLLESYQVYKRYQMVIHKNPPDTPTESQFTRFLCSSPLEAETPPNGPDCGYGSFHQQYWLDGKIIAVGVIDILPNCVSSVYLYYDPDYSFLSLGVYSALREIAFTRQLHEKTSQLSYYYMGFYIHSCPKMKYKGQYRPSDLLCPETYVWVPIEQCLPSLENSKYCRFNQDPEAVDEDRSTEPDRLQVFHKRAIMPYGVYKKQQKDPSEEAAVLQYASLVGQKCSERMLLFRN
UniProt Q9NVP2, whole entry, looked up: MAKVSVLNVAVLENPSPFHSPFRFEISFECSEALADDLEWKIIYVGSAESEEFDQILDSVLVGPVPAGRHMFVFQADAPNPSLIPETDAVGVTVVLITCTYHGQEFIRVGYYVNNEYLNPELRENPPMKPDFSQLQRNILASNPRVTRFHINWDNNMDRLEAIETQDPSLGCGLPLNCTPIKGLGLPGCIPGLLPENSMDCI
UniProt O43681: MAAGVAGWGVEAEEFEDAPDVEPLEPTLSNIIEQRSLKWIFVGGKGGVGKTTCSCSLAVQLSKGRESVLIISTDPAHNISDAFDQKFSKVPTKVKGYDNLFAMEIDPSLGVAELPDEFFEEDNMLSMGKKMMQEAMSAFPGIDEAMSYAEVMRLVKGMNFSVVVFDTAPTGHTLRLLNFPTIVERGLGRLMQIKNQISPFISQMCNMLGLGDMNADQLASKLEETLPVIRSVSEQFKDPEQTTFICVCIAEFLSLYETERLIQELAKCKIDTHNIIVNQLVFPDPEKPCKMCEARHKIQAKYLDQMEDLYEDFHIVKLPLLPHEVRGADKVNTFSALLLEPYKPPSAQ

compound: C=CC(=O)N1CCC[C@@H](n2nc(-c3ccc(Oc4ccccc4)cc3)c3c(N)ncnc32)C1 [ibrutinib]; assay: log2 fold change, soluble protein after heating vs DMSO (PISA); higher = thermal stabilisation; K562 lysate, 10 uM; active = over 0.2 and 3.5 SD of the protein, either way, in both replicates (recomputed)
Method in brief: (§1)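 Values give the log-two fold change in thermal stability against solvent controls, from duplicates. Crude K562 extract at 1 mg/mL protein, made by dounce homogenisation in PBS pH 7.4 with 1 mM MgCl2, was treated with 10 μM compound for 30 min. After 3 min heating across 48°C-58°C, aliquots were pooled, adjusted to 0.5% NP-40 at 4°C and centrifuged at 21,000xg for 90 min. The supernatant was measured by TMTpro 16plex LC-MS/MS with channel sums equalised.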

Target	log2 fold change
B3GLCT (UniProt Q6Y288)	inactive: 0.04
ATP13A1 (UniProt Q9HD20)	inactive: -0.021
ATP5F1C (UniProt P36542)	inactive: -0.024
ATP2B4 (UniProt P23634)	inactive: 0.06
ATP5F1D (UniProt P30049)	inactive: 0.004
ATP23 (UniProt Q9Y6H3)	inactive: -0.041
ATXN3 isoform 1 (UniProt P54252)	inactive: 0.009
AZGP1 (UniProt P25311)	inactive: -0.09
ASH2L (UniProt Q9UBL3)	inactive: -0.032
ATG9A (UniProt Q7Z3C6)	inactive: 0.024
ATP6V1E2 (UniProt Q96A05)	inactive: 0.007
ATP1A1 (UniProt P05023)	inactive: -0.015
ATG101 (UniProt Q9BSB4)	inactive: 0.026
B2M (UniProt P61769)	inactive: -0.012
ASB6 (UniProt Q9NWX5)	inactive: -0.04
ATP11A (UniProt P98196)	inactive: -0.02
ATP6V1E1 (UniProt P36543)	inactive: 0.023

Target	log2 fold change
ATP5PF isoform 2 (UniProt P18859)	inactive: 0.069
ATP13A2 (UniProt Q9NQ11)	inactive: 0.003
ATG7 (UniProt O95352)	inactive: 0.014
ATRIP (UniProt Q8WXE1)	inactive: 0.019
AVL9 (UniProt Q8NBF6)	inactive: -0.011
ATP6V1F isoform 2 (UniProt Q16864)	inactive: 0.075
ASL (UniProt P04424)	inactive: -0.003
ATE1 isoform 2 (UniProt O95260)	inactive: 0.056
ATP1A3 isoform 3 (UniProt P13637)	inactive: -0.014
ATXN10 (UniProt Q9UBB4)	inactive: 0.001
ATP6V1B2 (UniProt P21281)	inactive: -0.015
ATG2A isoform 3 (UniProt Q2TAZ0)	inactive: -0.013
ASF1B (UniProt Q9NVP2)	inactive: 0.107
ATG4C (UniProt Q96DT6)	inactive: -0.008
ATP1A4 (UniProt Q13733)	inactive: -0.017
ASNA1 (UniProt O43681)	inactive: 0.009
ATP5PO (UniProt P48047)	inactive: -0.01

compound: CC(=O)c1cnc2ccc(-c3cc(Cl)c(O)c(Cl)c3)nc2c1N[C@H]1CC[C@H](CN(C)C)CC1; assay: as above
Method in brief: as §1

Target	log2 fold change
B3GLCT (UniProt Q6Y288)	inactive: 0.03
ATP13A1 (UniProt Q9HD20)	inactive: 0.048
ATP5F1C (UniProt P36542)	inactive: -0.012
ATP2B4 (UniProt P23634)	inactive: -0.026
ATP5F1D (UniProt P30049)	inactive: -0.04
ATP23 (UniProt Q9Y6H3)	inactive: 0.009
ATXN3 isoform 1 (UniProt P54252)	inactive: -0.005
AZGP1 (UniProt P25311)	inactive: -0.257
ASH2L (UniProt Q9UBL3)	inactive: -0.004
ATG9A (UniProt Q7Z3C6)	inactive: -0.006
ATP6V1E2 (UniProt Q96A05)	inactive: -0.028
ATP1A1 (UniProt P05023)	inactive: -0.001
ATG101 (UniProt Q9BSB4)	inactive: 0
B2M (UniProt P61769)	inactive: 0.026
ASB6 (UniProt Q9NWX5)	inactive: -0.087
ATP11A (UniProt P98196)	inactive: 0.091
ATP6V1E1 (UniProt P36543)	inactive: -0.016

Target	log2 fold change
ATP5PF isoform 2 (UniProt P18859)	inactive: -0.055
ATP13A2 (UniProt Q9NQ11)	inactive: 0.016
ATG7 (UniProt O95352)	inactive: -0.008
ATRIP (UniProt Q8WXE1)	inactive: 0.129
AVL9 (UniProt Q8NBF6)	inactive: -0.03
ATP6V1F isoform 2 (UniProt Q16864)	inactive: -0.057
ASL (UniProt P04424)	inactive: 0
ATE1 isoform 2 (UniProt O95260)	inactive: 0.001
ATP1A3 isoform 3 (UniProt P13637)	inactive: -0.012
ATXN10 (UniProt Q9UBB4)	inactive: -0.013
ATP6V1B2 (UniProt P21281)	inactive: -0.023
ATG2A isoform 3 (UniProt Q2TAZ0)	inactive: -0.015
ASF1B (UniProt Q9NVP2)	inactive: 0.022
ATG4C (UniProt Q96DT6)	inactive: -0.035
ATP1A4 (UniProt Q13733)	inactive: 0.032
ASNA1 (UniProt O43681)	inactive: 0.019
ATP5PO (UniProt P48047)	inactive: 0.002
